2 molecules from patent publication WO2023074749A1 can be followed below.

No constants are given. Whether binding was seen depends on the method and setting. Some results given as binding are weak or reduced against the parent protein; the word gives no strength.

The assay addresses recombinant HER2-Fc protein (human) (UniProt P04626). Description: ELISA; peptide on solid phase, recombinant HER2-Fc, HRP-labeled anti-IgG.

B1: pertuzumab alternative molecule Rank 1 (peptide)
peptide: ERPYACSCRNCAGPFNLDEYRQRHIRIHTGQKP
With B1, the binding entry is on record as “binds”.

B2: pertuzumab alternative molecule Rank 2 (peptide)
peptide: ERPYACYRYWCMLPFPYSKSDRRHIRIHTGQKP
B2: the binding result is “binds”.
